Results are given in words; binding and its absence hold for the method and conditions named. Binding seen in cells or lysates may run through a third protein. Some binding calls cover weakened binding; strength is not graded here.
T1: Eukaryotic translation initiation factor 2A (UniProt Q8BJW6)
T1 sequence: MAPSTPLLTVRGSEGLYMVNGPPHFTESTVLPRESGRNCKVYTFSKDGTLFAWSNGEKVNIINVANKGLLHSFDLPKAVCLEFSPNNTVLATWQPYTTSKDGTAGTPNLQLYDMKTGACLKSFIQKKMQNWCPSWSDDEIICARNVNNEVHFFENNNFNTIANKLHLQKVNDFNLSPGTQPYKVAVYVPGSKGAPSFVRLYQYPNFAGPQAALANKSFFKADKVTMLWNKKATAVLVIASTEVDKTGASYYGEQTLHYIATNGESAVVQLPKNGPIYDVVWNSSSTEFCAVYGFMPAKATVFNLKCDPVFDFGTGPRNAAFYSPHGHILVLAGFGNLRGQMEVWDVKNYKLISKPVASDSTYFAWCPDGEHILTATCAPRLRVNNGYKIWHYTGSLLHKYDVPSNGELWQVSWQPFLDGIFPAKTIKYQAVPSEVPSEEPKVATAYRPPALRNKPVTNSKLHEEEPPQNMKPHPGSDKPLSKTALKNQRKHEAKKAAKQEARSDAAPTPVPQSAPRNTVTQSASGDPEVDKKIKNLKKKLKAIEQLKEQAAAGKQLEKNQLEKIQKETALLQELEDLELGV

Sequences of proteins named here, by UniProt entry; tags and fusion partners are left off.
UniProt Q6ZWX6: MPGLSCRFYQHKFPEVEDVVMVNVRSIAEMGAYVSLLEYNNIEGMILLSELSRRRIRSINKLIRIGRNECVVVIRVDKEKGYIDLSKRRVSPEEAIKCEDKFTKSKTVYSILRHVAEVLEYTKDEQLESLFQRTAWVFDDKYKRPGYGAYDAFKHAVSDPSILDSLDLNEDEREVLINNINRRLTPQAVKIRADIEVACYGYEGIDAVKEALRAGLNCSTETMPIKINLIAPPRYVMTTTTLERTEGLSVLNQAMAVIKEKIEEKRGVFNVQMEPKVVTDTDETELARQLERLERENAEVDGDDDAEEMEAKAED


Assays:
[1] = target: T1, Eukaryotic translation initiation factor 2A; assay: co-IP
[2] = target: EIF2S1 (α subunit of the eukaryotic initiation factor 2) (UniProt Q6ZWX6); assay: co-IP

| binding [1] | binding [2] | Molecule |
| --- | --- | --- |
| binds | – | EIF2S1 (α subunit of the eukaryotic initiation factor 2) (from UniProt Q6ZWX6 1-315) |
| – | binds | Eukaryotic translation initiation factor 2A (protein, UniProt Q8BJW6 1-581) MAPSTPLLTVRGSEGLYMVNGPPHFTESTVLPRESGRNCKVYTFSKDGTLFAWSNGEKVNIINVANKGLLHSFDLPKAVCLEFSPNNTVLATWQPYTTSKDGTAGTPNLQLYDMKTGACLKSFIQKKMQNWCPSWSDDEIICARNVNNEVHFFENNNFNTIANKLHLQKVNDFNLSPGTQPYKVAVYVPGSKGAPSFVRLYQYPNFAGPQAALANKSFFKADKVTMLWNKKATAVLVIASTEVDKTGASYYGEQTLHYIATNGESAVVQLPKNGPIYDVVWNSSSTEFCAVYGFMPAKATVFNLKCDPVFDFGTGPRNAAFYSPHGHILVLAGFGNLRGQMEVWDVKNYKLISKPVASDSTYFAWCPDGEHILTATCAPRLRVNNGYKIWHYTGSLLHKYDVPSNGELWQVSWQPFLDGIFPAKTIKYQAVPSEVPSEEPKVATAYRPPALRNKPVTNSKLHEEEPPQNMKPHPGSDKPLSKTALKNQRKHEAKKAAKQEARSDAAPTPVPQSAPRNTVTQSASGDPEVDKKIKNLKKKLKAIEQLKEQAAAGKQLEKNQLEKIQKETALLQELEDLELGV |

From article doi:10.1101/2021.02.17.431676
